{"source": "the supplement of paper PMC8866396", "note": "± gives the standard deviation of the averaged measurements. The list shows a part of the results. Repeats in this data set agree poorly, so a single value says little."}
{"tested_on": "IL-6-GFP PC-9", "assay": "IL-6-GFP fluorescence relative to DMSO control (fraction of control); higher = more IL-6-GFP expression", "details": "compound concentration: 10 uM; treatment time: 48 h", "procedure": "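IL-6-GFP-overexpressing PC-9 and PC-9GR EGFR-mutant lung cancer cells (3000 cells/well, 96-well) were treated for 48 h with each compound of the Selleck L2000 library at 10 uM. IL-6-GFP fluorescence was read on a high-content screening system, and viability by CCK-8 absorbance on a parallel plate set. Each value was normalised as compound well / DMSO control well; two independent replicates.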"}
{"smiles": "C#Cc1cccc(Nc2ncnc3cc(OCCOC)c(OCCOC)cc23)c1", "note": "[Erlotinib]", "IL-6-GFP fluorescence": "0.958 ± 0.22"}
{"smiles": "O=C(/C=C/C=C/c1ccc2c(c1)OCO2)N1CCCCC1", "note": "[Piperine]", "IL-6-GFP fluorescence": "1.89 ± 0.8"}
{"smiles": "Cc1c(Cl)cccc1Nc1ccccc1C(=O)O", "note": "[Tolfenamic Acid]", "IL-6-GFP fluorescence": "0.859 ± 0.21"}
{"smiles": "Cl.N=C1CCCN1Cc1[nH]c(=O)[nH]c(=O)c1Cl.O=c1[nH]c(=O)n(C2CC(O)C(CO)O2)cc1C(F)(F)F.O=c1[nH]c(=O)n(C2CC(O)C(CO)O2)cc1C(F)(F)F", "note": "(configuration not stated)", "IL-6-GFP fluorescence": "1.09 ± 0.027"}
{"smiles": "CN1C(=O)/C(=C2/C(=O)Nc3ccccc32)c2ccccc21", "note": "[Meisoindigo]", "IL-6-GFP fluorescence": "0.687 ± 0.15"}
{"smiles": "Cc1ccc(-c2ncc(Cl)cc2-c2ccc(S(C)(=O)=O)cc2)cn1", "note": "[Etoricoxib]", "IL-6-GFP fluorescence": "0.873 ± 0.087"}
{"smiles": "CC(=O)Nc1ccc(OC(=O)c2ccccc2OC(C)=O)cc1", "note": "[Benorylate]", "IL-6-GFP fluorescence": "0.803 ± 0.016"}
{"smiles": "Cc1ccc(=O)n(-c2ccccc2)c1", "note": "[Pirfenidone]", "IL-6-GFP fluorescence": "0.733 ± 0.27"}
{"smiles": "CC12CCC(CC1)C(C)(C)O2", "note": "[Eucalyptol]", "IL-6-GFP fluorescence": "0.88 ± 0.029"}
{"smiles": "O=C(c1ccc(OCCN2CCCCC2)cc1)c1c(-c2ccc(O)cc2)sc2cc(O)ccc12", "note": "[Raloxifene]", "IL-6-GFP fluorescence": "0.71 ± 0.14"}
{"smiles": "COc1cc2c3cc1Oc1c(OC)c(OC)cc4c1C(Cc1ccc(O)c(c1)Oc1ccc(cc1)CC3N(C)CC2)N(C)CC4", "note": "(configuration not stated) [Berbamine]", "IL-6-GFP fluorescence": "0.895 ± 0.16"}
{"smiles": "CCOC(=O)c1ccc(C#Cc2ccc3c(c2)C(C)(C)CCS3)nc1", "note": "[Tazarotene]", "IL-6-GFP fluorescence": "2.08 ± 0.013"}
{"smiles": "Cc1oncc1C(=O)Nc1ccc(C(F)(F)F)cc1", "note": "[Leflunomide]", "IL-6-GFP fluorescence": "0.816 ± 0.015"}
{"smiles": "Nc1cccc2c1C(=O)N(C1CCC(=O)NC1=O)C2=O", "note": "(configuration not stated) [Pomalidomide]", "IL-6-GFP fluorescence": "1.89 ± 0.45"}
{"smiles": "Cc1coc2c1C(=O)C(=O)c1c-2ccc2c(C)cccc12", "note": "[Tanshinone I]", "IL-6-GFP fluorescence": "0.856 ± 0.17"}
{"smiles": "COc1cc2ncnc(Nc3ccc(F)c(Cl)c3)c2cc1OCCCN1CCOCC1", "note": "[Gefitinib (ZD1839)]", "IL-6-GFP fluorescence": "0.961 ± 0.038"}
{"smiles": "COc1cccc2c1C(=O)c1c(O)c3c(c(O)c1C2=O)CC(O)(C(C)=O)CC3OC1CC(N)C(O)C(C)O1.Cl", "note": "(configuration not stated) [Daunorubicin HCl]", "IL-6-GFP fluorescence": "0.446 ± 0.12"}
{"smiles": "O=C(Oc1ccccc1C(=O)O)c1ccccc1O", "note": "[Sasapyrine]", "IL-6-GFP fluorescence": "1.03 ± 0.11"}
{"smiles": "CCCCC(=O)OC1(C(=O)CO)C(C)CC2C3CCC4=CC(=O)C=CC4(C)C3(F)C(O)CC21C", "note": "(configuration not stated) [Betamethasone Valerate]", "IL-6-GFP fluorescence": "0.931 ± 0.14"}
{"smiles": "CCc1ccc(Cc2ccc3c(c2)C2(OC3)OC(CO)C(O)C(O)C2O)cc1.O", "note": "(configuration not stated) [Tofogliflozin(CSG 452)]", "IL-6-GFP fluorescence": "0.969 ± 0.03"}
{"smiles": "CCC1(O)C(=O)OCc2c1cc1n(c2=O)Cc2cc3c(CN(C)C)c(O)ccc3nc2-1", "note": "(configuration not stated) [Topotecan]", "IL-6-GFP fluorescence": "1.33 ± 0.26"}
{"smiles": "COc1c(-c2ccc3cc(NS(C)(=O)=O)ccc3c2)cc(-n2ccc(=O)[nH]c2=O)cc1C(C)(C)C", "note": "[Dasabuvir(ABT-333)]", "IL-6-GFP fluorescence": "0.857 ± 0.072"}
{"smiles": "COc1cc(C2c3cc4c(cc3C(OC3OC5COC(C)OC5C(O)C3O)C3COC(=O)C23)OCO4)cc(OC)c1O", "note": "(configuration not stated) [Etoposide]", "IL-6-GFP fluorescence": "0.988 ± 0.1"}
{"smiles": "CC(=O)OC(C)C(C)C(=O)OCC12C3CC4(C)C(=CCC5C6(C)CCC(OC7OC(C(=O)[O][Na])C(OC8OC(CO)C(O)C(O)C8O)C(O)C7OC7OCC(O)C(O)C7O)C(C)(CO)C6CCC54C)C1CC(C)(C)C(O3)C2O", "note": "(configuration not stated) [Sodium Aescinate]", "IL-6-GFP fluorescence": "0.957 ± 0.12"}
{"smiles": "Cc1cccn2c(=O)c(-c3nnn[n-]3)cnc12.[K+]", "note": "[Pemirolast potassium]", "IL-6-GFP fluorescence": "0.88499 ± 0.00011"}
{"smiles": "Cn1c(=O)cc(N2CCCC(N)C2)n(Cc2cc(F)ccc2C#N)c1=O", "note": "(configuration not stated) [Trelagliptin]", "IL-6-GFP fluorescence": "0.895 ± 0.047"}
{"smiles": "CC(=O)C1CCC2C3CC(C)C4=CC(=O)CCC4(C)C3C(O)CC12C", "note": "(configuration not stated) [Medrysone]", "IL-6-GFP fluorescence": "1.03 ± 0.22"}
{"smiles": "O=S1(=O)CCN(CN2CCS(=O)(=O)NC2)CN1", "note": "[Taurolidine]", "IL-6-GFP fluorescence": "0.771 ± 0.058"}
{"smiles": "COc1cc(CNC(=O)CCCC/C=C\\C(C)C)ccc1O", "note": "[Zucapsaicin]", "IL-6-GFP fluorescence": "0.882 ± 0.066"}
{"smiles": "CN(C)N=Nc1[nH]cnc1C(N)=O", "note": "[Dacarbazine]", "IL-6-GFP fluorescence": "0.951 ± 0.076"}
{"smiles": "NC(=O)c1cccc2cn(-c3ccc(C4CCCNC4)cc3)nc12", "note": "(configuration not stated) [Niraparib (MK-4827)]", "IL-6-GFP fluorescence": "0.868 ± 0.12"}
{"smiles": "Cc1cncc(CN2CCC(=C3c4ccc(Cl)cc4CCc4cccnc43)CC2)c1.O=C(O)/C=C/C(=O)O", "note": "[Rupatadine Fumarate]", "IL-6-GFP fluorescence": "1.04 ± 0.33"}
